Source: PubChem BioAssay AID493014 (National Center for Advancing Translational Sciences (NCATS), 2011)
This is one part of the list. Further columns of the screen follow, without active or inactive calls. Most of these compounds were active or inconclusive in the main read-out, so they are no random draw. Words in brackets tell the shape of the fitted curve; partial curves, single points and poor fits give uncertain potencies.

Experiment: qHTS Assay to Find Inhibitors of Chronic Active B-Cell Receptor Signaling
Settings: ABC-DLBCL IkBa-CBG/CBR reporter, luminescence ratio (green luciferase fused to IkBa over red control in TMD8 lymphoma cells), 4 h
How it was run: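 Cell line TMD8 (human ABC DLBCL), stably expressing tet-inducible CBG68-IkBa fusion and CBR; IMDM/0.5% FBS; cpd up to 46 uM; dox induction, 4 h, 37C/5% CO2; dual luminescence; green/red ratio; MG132 control.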

[1] = measured here: CBR red luminescence, cell number
[2] = measured here: IkBa-CBG green luminescence

SMILES | AC50 [1] | AC50 [2]
O=C(Cn1c2ccccc2c(=O)c2cc([N+](=O)[O-])ccc21)Nc1ccccc1Cl | 0.58 µM [rising, full curve, poor fit] | –
Cc1csc(NC(=O)CSc2nc3sc(C)c(C)c3c(=O)[nH]2)n1 | 29.1 µM [falling, single point] | –
O=C(CSc1ccc2nnc(-c3cccnc3)n2n1)Nc1ccc(F)cc1 | 3.16 µM [falling, single point] | –
Cc1ccc(NC2=C/C(=N\S(=O)(=O)c3cccs3)c3ccccc3C2=O)c(C)c1 | 5.17 µM [falling, full curve, poor fit] | 5.17 µM [rising, full curve]
O=C(COc1ccc(Cl)cc1Cl)NCC1(N2CCOCC2)CCCCC1 | 0.0651 µM [rising, full curve, poor fit] | –
CCCOc1ccc(C2=NNC(c3cccs3)=Nc3ccc(OC)cc32)cc1 | 32.6 µM [falling, single point] | –
Fc1ccc(CNc2nc3ccccc3n3nnnc23)cc1 | 3.98 µM [falling, full curve] | –
CC(C)c1ccc(/C=C2\SC(=S)N(CCC(=O)NCCCn3ccnc3)C2=O)cc1 | 6.31 µM [falling, full curve] | –
COc1cccc(C(=O)NNC(=O)C(=O)Nc2cccc3ccccc23)c1 | 0.282 µM [falling, full curve, poor fit] | –
O=C(NNC1=C(C(=O)C(F)(F)F)CCC1)c1cccc(O)c1 | 4.61 µM [falling, partial curve] | –
N#C/C(=N\Nc1ccc(Cl)cc1)C(=N)N1CCCCC1 | 14.1 µM [falling, single point] | –
COc1ccccc1NC(=O)CSc1c2c(nc3ccccc13)CCC2 | 23.1 µM [falling, single point] | –
Cc1nn(-c2ccccc2)c2sc(C(=O)N(CC(=O)NC(C)(C)C)Cc3ccco3)cc12 | 29.1 µM [falling, single point] | 32.6 µM [rising, partial curve, poor fit]
COc1ccc(C(=O)Nc2ccc3c(c2)OCCO3)cc1Br | 35.5 µM [falling, partial curve, poor fit] | –
O=C(Nc1ccccc1O)c1cccc(NC(=O)c2ccco2)c1 | 14.1 µM [falling, single point] | –
O=C(N/N=C/C=C/c1ccccc1)c1cnccn1 | 8.2 µM [falling, partial curve] | –
O=C(Nn1c(SCc2cccc([N+](=O)[O-])c2)nc2ccccc2c1=O)c1ccccc1 | 0.13 µM [rising, full curve, poor fit] | –
CC(=O)c1cccc(Nc2nc(-c3cccnc3)cs2)c1 | 35.5 µM [falling, single point] | –
Cc1ccc(Nc2nc3ccccc3s2)c(C)c1 | 0.411 µM [rising, full curve] | –
CCc1ccc(C2CC(c3ccccc3)n3ncnc3N2)cc1 (configuration not stated) | 3.66 µM [rising, single point] | –
O=[N+]([O-])c1ccc(NCCOc2ccccc2Cl)nc1 | 0.891 µM [rising, full curve, poor fit] | –

4 records picked at random from the list so far, as already listed:
SMILES | AC50 [1] | AC50 [2]
CCc1ccc(C2CC(c3ccccc3)n3ncnc3N2)cc1 (configuration not stated) | 3.66 µM [rising, single point] | –
O=[N+]([O-])c1ccc(NCCOc2ccccc2Cl)nc1 | 0.891 µM [rising, full curve, poor fit] | –
COc1ccc(C(=O)Nc2ccc3c(c2)OCCO3)cc1Br | 35.5 µM [falling, partial curve, poor fit] | –
O=C(COc1ccc(Cl)cc1Cl)NCC1(N2CCOCC2)CCCCC1 | 0.0651 µM [rising, full curve, poor fit] | –

The list continues:

SMILES | AC50 [1] | AC50 [2]
COc1ccc(CCNC(=O)c2ccc(-c3ccc([N+](=O)[O-])cc3)o2)cc1OC | 0.731 µM [rising, full curve, poor fit] | –
O=C(COC(=O)c1cccnc1Cl)NCc1ccc(F)cc1 | 0.184 µM [rising, full curve, poor fit] | –
CCOc1ccc(CCNC(=O)c2cccc(S(=O)(=O)N3CCCC3)c2)cc1OCC | 8.2 µM [rising, partial curve] | –
COc1ccc(C)c2sc(NC(=O)C3=COCCO3)nc12 | 5.8 µM [falling, partial curve] | –
COc1c(NC(C)=O)c2ccccc2c2ccccc12 | 1.78 µM [falling, full curve, poor fit] | 2.82 µM [rising, full curve, poor fit]
CC(=O)c1ccc(NC(=O)Cc2ccsc2)cc1 | 6.31 µM [rising, single point] | –
CC(C)(C)Cc1nnc(NS(=O)(=O)Cc2ccccc2)s1 | 1.26 µM [falling, partial curve, poor fit] | –
O=C(/C=C/c1cccc(Cl)c1)Nc1ncccn1 | 18.4 µM [falling, partial curve] | –
Cc1cc(Cl)ccc1NC(=S)N1CCN(Cc2ccccc2)CC1 | 18.4 µM [falling, partial curve, poor fit] | –
Cc1ccc(OCC(=O)Oc2ccc(C(C)C)cc2)cc1 | 5.01 µM [rising, partial curve, poor fit] | –
Cc1cccc(NC(=S)NCC2CCCO2)c1 (configuration not stated) | 11.6 µM [rising, partial curve, poor fit] | –
COc1cc(C)ccc1OCCOc1cc(C)ccc1Cl | 12.6 µM [rising, partial curve, poor fit] | –
COc1ccc(OCC(=O)Nc2ccc3c(c2)nc(CCN2CCOCC2)n3C)cc1 | 6.31 µM [falling, single point] | –
CC(C)(C)Cc1nnc(NC(=O)CSc2ccccc2)s1 | 10 µM [falling, partial curve, poor fit] | –
C=CCn1c(SCC(=O)Nc2ccc(F)cc2F)nnc1-c1cnccn1 | 4.47 µM [falling, full curve, poor fit] | –
CC1CCN(CCc2nc3cc(NS(=O)(=O)c4ccc(F)cc4)ccc3n2C)CC1 | 13 µM [falling, partial curve, poor fit] | –
Oc1ccc(Oc2ccc(Oc3ccc(O)cc3)cc2)cc1 | 35.5 µM [falling, single point] | –
CC(=O)c1ccc(NC(=O)CSc2nc3ccccc3c(=O)n2CCCN2CCOCC2)cc1 | – | 5.17 µM [falling, partial curve, poor fit]
Oc1ccc(-c2csc(Nc3cccnc3)n2)cc1 | 0.231 µM [rising, full curve, poor fit] | –
COc1ccc(C2=Nn3c(nnc3-c3cccnc3)SC2)cc1OC | 3.98 µM [rising, partial curve, poor fit] | –
COc1ccccc1Oc1ccc(S(=O)(=O)Nc2cccnc2)cc1 | 29.1 µM [rising, single point] | –

SMILES | AC50 [1] | AC50 [2]
Cc1cc(=O)c(C(=O)O)cn1Nc1ccc(Cl)cc1 | 0.00517 µM [rising, full curve, poor fit] | –
COc1ccc(C(=O)NC(C(=O)NCc2ccccn2)C(C)C)cc1 (configuration not stated) | 2.82 µM [rising, full curve] | –
CCOC(=O)c1cnc(-n2cc(C)cn2)nc1Nc1ccccc1OC | 23.1 µM [rising, single point] | –
C#CCOCCOCCOCCNc1nc(N2CCN(C(=O)CCCCCCCCCCNC(=O)[C@H](CCCCN)n3cc(C)nn3)CC2)nc(N2CCN(C(=O)CCCCCCCCCCNC(=O)[C@@H]([C@H](C)CC)n3cc(CCCCCN)nn3)CC2)n1 | 29.1 µM [falling, single point] | –
Cc1[nH]n(S(=O)(=O)Cc2ccccc2)c(=O)c1N=Nc1ccccc1Cl | 7.08 µM [rising, partial curve, poor fit] | –
COc1ccccc1NC(=O)Oc1cccc(OC(=O)c2ccccc2)c1 | – | 5.01 µM [rising, partial curve, poor fit]
O=C(NCC(=O)N1CCCCCCC1)c1ccccc1Cl | 3.26 µM [rising, partial curve, poor fit] | –
COc1ccc(C(=O)N(C)Cc2ccccc2F)cc1S(=O)(=O)N1CCCC1 | 25.9 µM [falling, single point] | –
CCn1c(=O)cc(OCC(=O)Nc2cc(C)ccn2)c2ccccc21 | 8.2 µM [falling, partial curve] | 7.31 µM [rising, partial curve, poor fit]
CCc1ccccc1NC(=S)NCCSc1ccc(Cl)cc1 | 0.316 µM [rising, full curve, poor fit] | –
CC(/C=C/c1ccc(N(C)C)cc1)=N\N=C1\NC(=O)CC(C(=O)Nc2ccccc2)S1 (configuration not stated) | – | 29.1 µM [falling, single point]
Cc1cc(C)c(S(=O)(=O)N2CCCC(C(=O)N3CCOCC3)C2)c(C)c1 (configuration not stated) | 17.8 µM [falling, single point] | –
Cc1ccc(C)c(S(=O)(=O)Nc2cc(SCC(=O)O)c(O)c3ccccc23)c1 | 29.1 µM [falling, single point] | –
O=C1N=C(N2CCN(c3cccc4ccccc34)CC2)S/C1=C/c1cccs1 | 7.31 µM [rising, partial curve, poor fit] | –
COc1ccccc1Nc1nc(N)nc(CN2CCC(C)CC2)n1 | 5.62 µM [rising, single point] | –
CCCOc1ccc(C2C(C(=O)c3ccc(C)o3)=C(O)C(=O)N2Cc2ccco2)cc1 (configuration not stated) | 5.01 µM [rising, partial curve, poor fit] | –
Cc1c(NS(=O)(=O)c2cccc(C(=O)N3CCCC3)c2)c(=O)n(-c2ccccc2)n1C | 2.91 µM [rising, partial curve] | –
COc1cccc(N2CC(NC(=O)c3cccc4ccccc34)CC2=O)c1 (configuration not stated) | 29.1 µM [rising, single point] | –
CCn1c(=O)c(C(=O)NCCc2ccc(OC)c(OC)c2)c(O)c2ccccc21 | 15.8 µM [falling, single point] | –
COc1cc(CNCc2ccco2)ccc1OCc1ccccc1 | 0.794 µM [rising, full curve, poor fit] | –
Cc1ccc2cc(C)c3nnc(SCC(=O)N4CCN(C(=O)c5ccco5)CC4)n3c2c1 | 14.6 µM [rising, single point] | –
